Source: PubChem BioAssay AID485314 (National Center for Advancing Translational Sciences (NCATS), 2010)
Where “and” joins values, the source holds several entries; their conditions need not be identical. Equal values may be shown once. Among all 340,000 compounds or so, about 4,500 (1.3%) were called active. Inconclusive means that the source gave no clear call. Such entries were picked first, then a sample of the others. The call rests on the fitted dose curve; in most records, active means well fitted inhibition curve with a large enough effect; inconclusive means small, poorly fitted or top-dose-only effect, or another doubt; inactive means no such curve, though single readings can be large or run the other way. Potencies of inconclusive entries are doubtful fits and often do not repeat.

What follows are compounds tested against DNA polymerase beta (Homo sapiens) (UniProt P06746) (assay: qHTS Assay for Inhibitors of DNA Polymerase Beta). Conditions: Pol beta primer extension/strand displacement, fluorescence kinetic; activity change, negative = inhibition: at 114 µM (top of the series).
In short: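 Pol beta (10 nM) and compounds were preincubated 15 min at room temperature, then 50 nM substrate (final) started primer extension/strand displacement. Reads were taken at 0 and 10 min; concentration-response data were fitted to a four-parameter Hill equation.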
On the % scale 0 is the no-effect control and ±100 the full control effect; potency means the concentration at half of the fitted maximal effect.

| Compound | Potency | activity change, negative = inhibition |
| --- | --- | --- |
| COc1ccccc1NC(=O)CCc1c(C)[nH]c(=O)c(C#N)c1C | inconclusive: 39.8 µM [inhibitor, single point] |  |
| Cc1ccc(NC(=O)Cn2c(=O)n(Cc3ccc4c(c3)OCO4)c(=O)c3ccccc32)c(C)c1 | inconclusive: 100 µM [inhibitor, single point] |  |
| Cc1ccc(C)c(N2CCN(S(=O)(=O)c3cnc(N)nc3)CC2)c1 | inconclusive: 39.8 µM [inhibitor, partial curve] |  |
| CCOc1cc2c(C#N)c(N3CCCCC3)nc(N)c2c(N)n1 | inconclusive: 44.7 µM [inhibitor, partial curve] |  |
| CCOc1ccc(N(CC(=O)NC(C)(C)C)C(=O)CCC(=O)Nc2nccs2)cc1 |  | inactive: 93.8% |
| COc1cccc(N2CCN(C(=O)c3ccc(CS(=O)c4cccc(Cl)c4)o3)CC2)c1 (stereo not drawn) |  | inactive: -7.58% |
| O=C(Nc1ccc2oc(-c3cccnc3)nc2c1)c1ccc(-c2cccc(OC(F)(F)F)c2)o1 |  | inconclusive: -38.7% [inhibitor] |
| O=C(c1cccs1)N1CCN=C1SCc1ccc(Cl)cc1 | inconclusive: 79.4 µM [inhibitor, single point] |  |
| O=C(C[n+]1ccccc1)Nc1ccccc1[N+](=O)[O-] |  | inactive: 12.9% |
| Cc1cc(C)c(C(=O)COC(=O)[C@H](C)Nc2ccc(C(F)(F)F)cc2[N+](=O)[O-])c(C)c1 | inconclusive: 89.1 µM [inhibitor, single point] |  |
| COC(=O)c1ccc(CSc2nnc(NC(=O)C3CCCO3)s2)cc1 (stereo not drawn) | inconclusive: 1.12 µM [inhibitor, full curve, poor fit] |  |
| CC(NC(=O)c1ccc2nc(CCc3ccccc3)oc2c1)c1ccccc1 (stereo not drawn) |  | inactive: -24.4% |
| COc1cc(C(=O)NNC(=O)NC2CCCCC2)cc(OC)c1OC | inconclusive: 89.1 µM [inhibitor, single point] |  |
| CCCC(=O)NCCc1cc2ccc(OC)cc2[nH]c1=O |  | inactive: -21.1% |
| CCc1nc(OCc2ccccc2)c2sc3nc4c(cc3c2n1)COC(C)(C)C4 | inconclusive: 89.1 µM [inhibitor, single point] |  |
| COc1cc(OC)cc(C(=O)NCC(=O)OCC(=O)N2c3ccccc3NC(=O)C2(C)C)c1 | inconclusive: 89.1 µM [inhibitor, single point] |  |
| CC1CCCCC1NC(=O)COC(=O)c1c2c(nc3ccccc13)/C(=C/c1ccco1)CC2 (stereo not drawn) | active: 11.2 µM |  |
| CCCN1C(C(=O)c2ccccc2)=C(OC(=O)c2ccc(F)cc2)c2ccccc2S1(=O)=O | inconclusive: 89.1 µM [inhibitor, single point] |  |
| COc1ccc(C(=O)c2c[nH]c(C(=O)N=CN(C)C)c2)cc1 | inconclusive: 10 µM [inhibitor, partial curve, poor fit] |  |
| Cc1c(CC(=O)O)c(=O)oc2cc3occ(-c4ccccc4)c3cc12 | inconclusive: 0.282 µM [inhibitor, full curve, poor fit] |  |
| CCN(CC)CCCN(Cc1cc2cc(OC)ccc2[nH]c1=O)C(=O)Nc1ccc(F)cc1 | inconclusive: 100 µM [inhibitor, single point] |  |
| CC(=O)Nc1ccc(Nc2cc(C)nc3c(-c4ccc(Cl)cc4)c(C)nn23)cc1 | inconclusive: 22.4 µM [inhibitor, partial curve] |  |
| CC(=O)Nc1ccc(C(=O)Nc2ccc(S(=O)(=O)NCC3CCCO3)cc2)cc1 (stereo not drawn) | inconclusive: 100 µM [inhibitor, single point] |  |

Reformatted in CSV form: part of the list above.
Compound,Potency,"activity change, negative = inhibition"
CCOc1cc2c(C#N)c(N3CCCCC3)nc(N)c2c(N)n1,"inconclusive: 44.7 µM [inhibitor, partial curve]",
CCOc1ccc(N(CC(=O)NC(C)(C)C)C(=O)CCC(=O)Nc2nccs2)cc1,,inactive: 93.8%

Continued.

| Compound | Potency | activity change, negative = inhibition |
| --- | --- | --- |
| O=C(NCc1ccco1)c1ccc2c(c1)N(Cc1ccc(F)cc1)C(=O)c1ccccc1S2=O (stereo not drawn) |  | inactive: 11.9% |
| CCOc1ccc(N=C2NC(=O)S/C2=C\c2ccc(N(C)C)cc2)cc1 |  | inactive: 2.97% |
| CS(=O)(=O)N1Cc2ccccc2CC1C(=O)O (stereo not drawn) | active: 17.8 µM |  |
| CCCCNC(=O)CSc1nc2ccccc2c(=O)n1CCNC(C)=O |  | inactive: 1.14% |
| Cc1ccc2nc(NCc3ccccc3Cl)c3nnnn3c2c1 | inconclusive: 100 µM [inhibitor, single point] |  |
| CCC(=O)N1CCc2cc(CNC(=O)Nc3ccc(OC)cc3OC)ccc21 |  | inactive: 10.4% |
| COc1ccc(OCC(O)CON2C(=O)c3ccccc3C2=O)cc1 (stereo not drawn) | inconclusive: 50.1 µM [inhibitor, partial curve] |  |
| O=C1N(CCCl)c2ccc(Br)cc2C12OCCO2 |  | inactive: -16.3% |
| O=C(CNC(=S)N(Cc1ccc(F)cc1)C1CCCCC1)NC1CC1 | inconclusive: 89.1 µM [inhibitor, single point] |  |
| COc1cc(/C=N/NC(=O)c2cc3ccccc3[nH]2)ccc1O | inconclusive: 15.8 µM [inhibitor, partial curve] |  |
| O=C(CN1CCN(S(=O)(=O)/C=C/c2ccccc2)CC1)NC(=O)NCc1ccco1 | active: 25.1 µM |  |
| O=C(CSCc1ccc(F)cc1)N1CCN(c2ccccc2)CC1 | inconclusive: 14.1 µM [inhibitor, partial curve, poor fit] and inconclusive: 89.1 µM [inhibitor, single point] |  |
| CCOc1ccc(NC(=O)CCC(=O)NNC(=O)COc2ccc(C)cc2)cc1 | inconclusive: 14.1 µM [inhibitor, full curve, poor fit] |  |
| COc1cccc(NC(=O)Cn2c(=O)n(-c3cccc(OC)c3)c(=O)c3c4c(sc32)CCCC4)c1 |  | inactive: 3.79% |
| COc1ccc(NC(=O)C2CCN(S(=O)(=O)c3c(C)noc3/C=C/c3ccco3)CC2)cc1 | active: 25.1 µM |  |
| OCCNC(=S)c1ccccc1 | inconclusive: 63.1 µM [inhibitor, single point] |  |
| O=C1C(Cl)=C(NC(=O)c2ccccc2)C(=O)C(Cl)=C1NC(=O)c1ccccc1 |  | inactive: -11.7% |
| COc1ccccc1N1CCN(S(=O)(=O)c2c(C)[nH]c(=O)[nH]c2=O)CC1 | inconclusive: 100 µM [inhibitor, single point] |  |
| O=C(CN1CCOCC1)N/N=C/c1ccc(C(=O)O)cc1 | inconclusive: 56.2 µM [inhibitor, partial curve] |  |
| Cn1c(-c2ccc(N)cc2)nc2ccccc21 |  | inactive: 0.37% |
| Nc1c(NCCc2ccccc2)c2ccccc2oc1=O | inconclusive: 89.1 µM [inhibitor, single point] |  |
| O=C(CCc1n[nH]c(=O)[nH]c1=O)N/N=C/c1ccco1 | active: 10 µM |  |
| Oc1ccc(N=Nc2ccccc2)o1 |  | inactive: -18.9% |

Part of the list above, set out differently.
Compound	Potency	activity change, negative = inhibition
COc1ccc(OCC(O)CON2C(=O)c3ccccc3C2=O)cc1 (stereo not drawn)	inconclusive: 50.1 µM [inhibitor, partial curve]	
O=C1N(CCCl)c2ccc(Br)cc2C12OCCO2		inactive: -16.3%
O=C(CNC(=S)N(Cc1ccc(F)cc1)C1CCCCC1)NC1CC1	inconclusive: 89.1 µM [inhibitor, single point]	
COc1cc(/C=N/NC(=O)c2cc3ccccc3[nH]2)ccc1O	inconclusive: 15.8 µM [inhibitor, partial curve]	
O=C(CN1CCN(S(=O)(=O)/C=C/c2ccccc2)CC1)NC(=O)NCc1ccco1	active: 25.1 µM	
O=C(CSCc1ccc(F)cc1)N1CCN(c2ccccc2)CC1	inconclusive: 14.1 µM [inhibitor, partial curve, poor fit] and inconclusive: 89.1 µM [inhibitor, single point]	
CCOc1ccc(NC(=O)CCC(=O)NNC(=O)COc2ccc(C)cc2)cc1	inconclusive: 14.1 µM [inhibitor, full curve, poor fit]	
COc1cccc(NC(=O)Cn2c(=O)n(-c3cccc(OC)c3)c(=O)c3c4c(sc32)CCCC4)c1		inactive: 3.79%
COc1ccc(NC(=O)C2CCN(S(=O)(=O)c3c(C)noc3/C=C/c3ccco3)CC2)cc1	active: 25.1 µM	
OCCNC(=S)c1ccccc1	inconclusive: 63.1 µM [inhibitor, single point]	
O=C1C(Cl)=C(NC(=O)c2ccccc2)C(=O)C(Cl)=C1NC(=O)c1ccccc1		inactive: -11.7%
COc1ccccc1N1CCN(S(=O)(=O)c2c(C)[nH]c(=O)[nH]c2=O)CC1	inconclusive: 100 µM [inhibitor, single point]	
O=C(CN1CCOCC1)N/N=C/c1ccc(C(=O)O)cc1	inconclusive: 56.2 µM [inhibitor, partial curve]	
Cn1c(-c2ccc(N)cc2)nc2ccccc21		inactive: 0.37%

Continuation:

| Compound | Potency | activity change, negative = inhibition |
| --- | --- | --- |
| Cc1c(CCC(=O)O)c(=O)oc2cc3occ(-c4ccccc4)c3cc12 | inconclusive: 28.2 µM [inhibitor, partial curve] |  |
| CCOc1ccccc1NC(=O)COc1cccc2c(=O)n(CCOC)ccc12 |  | inactive: 0.562% |
| CCC(=O)N1CCCc2cc(S(=O)(=O)CCC(=O)Nc3ccccc3C)ccc21 | inconclusive: 1 µM [inhibitor, single point] |  |
| O=C(Nc1ccc2oc(-c3ccc4ccccc4c3)nc2c1)c1cc(Br)ccc1Cl |  | inconclusive: -62.1% [inhibitor] |
| Cc1ccc(CNC(=O)c2ccc(CNS(=O)(=O)c3ccc4c(c3)C(C)(C)C(=O)N4C)cc2)o1 |  | inactive: 54.5% |
| COc1ccc2cc(C(c3nnnn3C3CCCC3)N3CCOCC3)c3nnnn3c2c1 (stereo not drawn) | inconclusive: 1.12 µM [inhibitor, partial curve] |  |
| CCc1ccc(NC(=O)CC(c2ccc(C)cc2)N2Cc3ccccc3C2=O)cc1 (stereo not drawn) |  | inactive: 8.63% |
| Cc1ccc(Cl)cc1N1CCN(C(=O)CCSCc2ccccc2F)CC1 | inconclusive: 89.1 µM [inhibitor, single point] |  |
| O=C(CCCc1nc(-c2ccco2)no1)Nc1ccccc1[N+](=O)[O-] | inconclusive: 44.7 µM [inhibitor, partial curve] |  |
| CCOC(=O)C(C)(C)Sc1nc2c(cnn2-c2ccc(F)cc2)c(=O)[nH]1 | inconclusive: 89.1 µM [inhibitor, single point] |  |
| S=c1[nH]nc(-c2cc(-c3ccccc3)n[nH]2)n1/N=C/c1cccs1 | inconclusive: 56.2 µM [inhibitor, partial curve, poor fit] |  |
| COc1ccc(S(=O)(=O)N(CC(=O)N2CCOCC2)c2cc(Cl)ccc2OC)cc1OC | inconclusive: 14.1 µM [inhibitor, partial curve, poor fit] |  |
| Cc1ccc(NC(=O)CS(=O)CC(=O)NCCCc2ccccc2)cc1Cl (stereo not drawn) | inconclusive: 14.1 µM [inhibitor, full curve] |  |
| Cc1ccc(CCNC(=O)c2sc3ncccc3c2-n2c(C)ccc2C)cc1 | inconclusive: 89.1 µM [inhibitor, single point] |  |
| COc1cccc(C2=CC(c3ccccc3F)n3ncc(C(=O)Nc4ccc(C)cc4)c3N2)c1 (stereo not drawn) | active: 28.2 µM |  |
| CCc1ccc(NC(=O)CN(c2ccccc2)S(=O)(=O)N(C)C)cc1 | inconclusive: 0.794 µM [inhibitor, full curve] |  |
| CCOC(=O)c1ccc(N2C(=O)CC(N3CCOCC3)C2=O)cc1 (stereo not drawn) | inconclusive: 0.708 µM [inhibitor, full curve] |  |
| CCN(CC)CCn1c(=O)n(-c2ccc(Cl)cc2)c(=O)c2c3c(sc21)CN(C)CC3 | inconclusive: 12.6 µM [inhibitor, partial curve, poor fit] |  |
| O=C(Nc1ccnn1C1CCN(Cc2ccccc2F)CC1)C1CCCC1 |  | inconclusive: -33.7% [inhibitor] |
| CCn1cc2nc(SCc3cccc(C(F)(F)F)c3)n(Cc3ccc(Cl)cc3)c(=O)c2n1 |  | inactive: -19.5% |
| Cc1ccc(N2CC(C(=O)Nc3nc4ccc(S(C)(=O)=O)cc4s3)CC2=O)cc1 (stereo not drawn) | inconclusive: 70.8 µM [inhibitor, single point] |  |
| Cc1ccc(C)c(N2CCN(C(=O)c3cnn(C(C)(C)C)c3C3CCN(C(=O)OC(C)(C)C)CC3)CC2)c1 |  | inactive: 9.57% |
